# Measurements reported in PubChem BioAssay AID1224830 (NIAID, 2016).
# Aim: 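Genes whose knock-down alters the TNF-alpha reporter response to LPS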 (primary screen)
# System: human THP-1 monocytic leukaemia cells, TNF dual-luciferase reporter clone, PMA-differentiated to macrophage-like cells
# Reagent: siRNA pool against human genes, 50 nM
# Time to read-out: LPS for 4 h, given about 3 days after siRNA transfection
# Treatment: bacterial LPS (TLR4 ligand), 10 ng/ml
# Measured: 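Ratio of firefly to renilla light, scaled to the plate median and expressed as a robust z-score per replicate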
# Reading the numbers: TNF reporter robust z-score: higher = stronger TNF reporter response to LPS
# Rule for the call: 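a well is active when its z-score exceeds 2.8 or falls below -1.5; control wells carry no call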
# The whole screen tested about 18,000 reagents; below is a part drawn at random. About 2,900 of them (16%) count as active. 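Calls are made per well; low scores hint the gene aids the LPS response, high scores that it dampens it.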 Repeated entries: four replicate wells of each siRNA pool. No sequences are given here.
The opening 8 entries, ahead of the listing:
Gene,TNF reporter robust z-score,Outcome
OR14C36,0.63,inactive
OR14C36,0.87,inactive
OR14C36,0.72,inactive
OR14C36,1.75,inactive
BAHD1,-0.56,inactive
BAHD1,-0.76,inactive
BAHD1,-0.42,inactive
BAHD1,-0.82,inactive

The listing, from the start:
Gene,TNF reporter robust z-score,Outcome
OR14C36,0.63,inactive
OR14C36,0.87,inactive
OR14C36,0.72,inactive
OR14C36,1.75,inactive
BAHD1,-0.56,inactive
BAHD1,-0.76,inactive
BAHD1,-0.42,inactive
BAHD1,-0.82,inactive
ZNF426,0.22,inactive
ZNF426,0.55,inactive
ZNF426,0.19,inactive
ZNF426,1.88,inactive
KRTAP8-1,0.69,inactive
KRTAP8-1,1.06,inactive
KRTAP8-1,-0.85,inactive
KRTAP8-1,-0.79,inactive
PAG1,-0.04,inactive
PAG1,0.3,inactive
PAG1,0.7,inactive
PAG1,1.31,inactive
ZNF785,-0.82,inactive
ZNF785,-0.89,inactive
ZNF785,-0.37,inactive
ZNF785,-0.4,inactive
SLC5A12,1.04,inactive
SLC5A12,1.33,inactive
SLC5A12,-0.62,inactive
SLC5A12,-0.06,inactive
SMDT1,-1.74,active
SMDT1,-0.9,inactive
SMDT1,-1.39,inactive
SMDT1,-0.74,inactive
LEPR,0.03,inactive
LEPR,-0.11,inactive
LEPR,-0.6,inactive
LEPR,-0.67,inactive
SNAI3,-0.27,inactive
SNAI3,-0.06,inactive
SNAI3,-1.03,inactive
SNAI3,-1.02,inactive
NUP88,0,inactive
NUP88,0.16,inactive
NUP88,0.66,inactive
NUP88,0.77,inactive
DET1,-1.67,active
DET1,-0.59,inactive
DET1,-1.34,inactive
DET1,-0.45,inactive
TFPI,-0.8,inactive
TFPI,-0.38,inactive
TFPI,-0.92,inactive
TFPI,-0.69,inactive
GAS2L2,-0.4,inactive
GAS2L2,0.42,inactive
GAS2L2,-0.61,inactive
GAS2L2,0.68,inactive
VAT1,-0.09,inactive
VAT1,0.08,inactive
VAT1,-0.28,inactive
VAT1,0.01,inactive
DMGDH,-1.64,active
DMGDH,-1.23,inactive
DMGDH,-0.89,inactive
DMGDH,-1.19,inactive
SLC35F3,-0.81,inactive
SLC35F3,-0.1,inactive
SLC35F3,-0.21,inactive
SLC35F3,-0.49,inactive
VWF,-0.63,inactive
VWF,0.2,inactive
VWF,-0.8,inactive
VWF,0.45,inactive
STEEP1,-1.22,inactive
STEEP1,-0.86,inactive
STEEP1,-0.71,inactive
STEEP1,-0.72,inactive
